Experimental data published in paper PMC4876403.
These are yes or no findings as the source states them, for the method shown. For some of these results: Binding seen in cells or lysates may run through a third protein. Some binding calls cover weakened binding; strength is not graded here. For some of these results: Where a sequence is shown, tags or fusion partners need not be part of it.

Legend:
[1] = molecular target: T1, BD/ANO1 seg(a) (human) (UniProt Q5XXA6); assay: two-hybrid; conventional Y2H screening with ANO1 segment a as bait; positive clones isolated
T1 sequence: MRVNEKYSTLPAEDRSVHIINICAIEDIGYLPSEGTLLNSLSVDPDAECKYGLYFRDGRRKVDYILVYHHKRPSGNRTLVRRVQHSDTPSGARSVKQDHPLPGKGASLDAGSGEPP

[2] = molecular target: T2, native ANO1 of glioblastoma cells (human (endogenous in U251, T98G, U138)) (UniProt Q5XXA6); assay: proximity ligation; Duolink PLA in U251 cells with anti-ANO1 (ab64085, rabbit) and anti-14-3-3γ (ab118877, mouse); cells with Sc shRNA, shRNA knock-down as control
T2 sequence: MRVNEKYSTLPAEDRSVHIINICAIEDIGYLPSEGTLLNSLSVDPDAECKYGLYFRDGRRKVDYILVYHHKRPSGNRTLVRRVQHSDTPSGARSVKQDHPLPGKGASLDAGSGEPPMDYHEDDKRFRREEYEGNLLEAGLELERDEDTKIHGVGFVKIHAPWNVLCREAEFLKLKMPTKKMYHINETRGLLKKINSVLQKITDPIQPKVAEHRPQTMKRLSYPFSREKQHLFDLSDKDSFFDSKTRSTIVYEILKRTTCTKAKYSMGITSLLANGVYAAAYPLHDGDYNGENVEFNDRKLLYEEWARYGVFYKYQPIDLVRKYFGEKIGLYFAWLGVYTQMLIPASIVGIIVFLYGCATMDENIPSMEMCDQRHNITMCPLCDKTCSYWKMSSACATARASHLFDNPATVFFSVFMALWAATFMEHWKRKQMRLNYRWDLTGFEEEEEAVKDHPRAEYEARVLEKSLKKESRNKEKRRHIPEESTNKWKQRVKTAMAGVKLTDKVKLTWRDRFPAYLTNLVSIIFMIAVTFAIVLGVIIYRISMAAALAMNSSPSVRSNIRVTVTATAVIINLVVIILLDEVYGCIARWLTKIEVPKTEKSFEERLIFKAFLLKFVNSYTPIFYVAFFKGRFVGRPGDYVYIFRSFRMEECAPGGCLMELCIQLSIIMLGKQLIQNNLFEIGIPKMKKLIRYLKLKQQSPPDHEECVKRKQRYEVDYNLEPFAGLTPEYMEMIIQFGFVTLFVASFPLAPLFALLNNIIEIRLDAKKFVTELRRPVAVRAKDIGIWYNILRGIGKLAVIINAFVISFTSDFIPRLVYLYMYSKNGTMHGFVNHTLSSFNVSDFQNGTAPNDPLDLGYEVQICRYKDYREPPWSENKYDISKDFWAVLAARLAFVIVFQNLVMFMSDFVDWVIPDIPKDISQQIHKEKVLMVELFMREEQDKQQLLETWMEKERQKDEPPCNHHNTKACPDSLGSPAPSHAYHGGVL

[3] = molecular target: T2, native ANO1 of glioblastoma cells (human (endogenous in U251, T98G, U138)); assay: co-IP; data not shown; endogenous proteins in T98G and U138 cells
[4] = molecular target: T2, native ANO1 of glioblastoma cells (human (endogenous in U251, T98G, U138)); assay: co-IP; endogenous proteins, U251 lysate; IP with anti-ANO1 (ab53212), blot with anti-14-3-3γ (ab69592); 50 mM Tris-HCl pH 7.4, 150 mM NaCl, 5 mM EDTA, 0.1% Triton X-100
[5] = molecular target: T1, BD/ANO1 seg(a) (human); assay: two-hybrid; BD/ANO1 seg(a) and AD/14-3-3γ co-transformed into yeast strain AH109; growth on medium without Thr, Leu and His (TLH-); empty vector as control
[6] = molecular target: T3, MBP-14-3-3γ (human) (UniProt P61981); assay: pull-down; MBP-14-3-3γ from BL-21 on MBP agarose beads; lysates of HEK293T cells with GFP-seg(a) or GFP-seg(a)-T9A; 2 h at 4 °C; washed with ice-cold PBS; western blot; only the target purified
T3 sequence: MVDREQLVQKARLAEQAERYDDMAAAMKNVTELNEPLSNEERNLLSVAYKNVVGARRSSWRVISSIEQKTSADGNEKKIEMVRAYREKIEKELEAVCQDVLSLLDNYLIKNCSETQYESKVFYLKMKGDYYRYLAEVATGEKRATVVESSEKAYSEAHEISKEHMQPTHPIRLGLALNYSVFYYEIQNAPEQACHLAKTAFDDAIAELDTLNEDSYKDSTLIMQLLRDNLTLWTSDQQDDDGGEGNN

[7] = molecular target: T4, segment a of ANO1 (co-IP constructs of Supplementary Figs 2a and 3c) (human) (UniProt Q5XXA6); assay: co-IP; segment a with seven 14-3-3 isoforms (Supplementary Fig. 2a); lysates of transfected HEK293T cells; 50 mM Tris-HCl pH 7.4, 150 mM NaCl, 5 mM EDTA, 0.1% Triton X-100
T4 sequence: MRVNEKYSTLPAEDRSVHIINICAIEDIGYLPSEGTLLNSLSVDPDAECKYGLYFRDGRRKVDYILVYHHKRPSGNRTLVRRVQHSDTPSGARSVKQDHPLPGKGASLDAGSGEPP

B1: human 14-3-3γ (positive clone of the Y2H screen) (protein, UniProt P61981 1-247)
chain: MVDREQLVQKARLAEQAERYDDMAAAMKNVTELNEPLSNEERNLLSVAYKNVVGARRSSWRVISSIEQKTSADGNEKKIEMVRAYREKIEKELEAVCQDVLSLLDNYLIKNCSETQYESKVFYLKMKGDYYRYLAEVATGEKRATVVESSEKAYSEAHEISKEHMQPTHPIRLGLALNYSVFYYEIQNAPEQACHLAKTAFDDAIAELDTLNEDSYKDSTLIMQLLRDNLTLWTSDQQDDDGGEGNN
[1]
  binding: binds

B2: native 14-3-3γ of glioblastoma cells (protein, UniProt P61981 1-247)
chain: MVDREQLVQKARLAEQAERYDDMAAAMKNVTELNEPLSNEERNLLSVAYKNVVGARRSSWRVISSIEQKTSADGNEKKIEMVRAYREKIEKELEAVCQDVLSLLDNYLIKNCSETQYESKVFYLKMKGDYYRYLAEVATGEKRATVVESSEKAYSEAHEISKEHMQPTHPIRLGLALNYSVFYYEIQNAPEQACHLAKTAFDDAIAELDTLNEDSYKDSTLIMQLLRDNLTLWTSDQQDDDGGEGNN
[2]
  binding: binds
[3]
  binding: binds
[4]
  binding: binds

B3: AD/14-3-3γ (protein, UniProt P61981 1-247)
chain: MVDREQLVQKARLAEQAERYDDMAAAMKNVTELNEPLSNEERNLLSVAYKNVVGARRSSWRVISSIEQKTSADGNEKKIEMVRAYREKIEKELEAVCQDVLSLLDNYLIKNCSETQYESKVFYLKMKGDYYRYLAEVATGEKRATVVESSEKAYSEAHEISKEHMQPTHPIRLGLALNYSVFYYEIQNAPEQACHLAKTAFDDAIAELDTLNEDSYKDSTLIMQLLRDNLTLWTSDQQDDDGGEGNN
[5]
  binding: binds

B4: GFP-ANO1 seg(a) (domain or fragment, UniProt Q5XXA6 1-116)
chain: MRVNEKYSTLPAEDRSVHIINICAIEDIGYLPSEGTLLNSLSVDPDAECKYGLYFRDGRRKVDYILVYHHKRPSGNRTLVRRVQHSDTPSGARSVKQDHPLPGKGASLDAGSGEPP
[6]
  binding: binds

B5: 14-3-3γ (co-IP constructs of Supplementary Figs 2a and 3c) (protein, UniProt P61981 1-247)
chain: MVDREQLVQKARLAEQAERYDDMAAAMKNVTELNEPLSNEERNLLSVAYKNVVGARRSSWRVISSIEQKTSADGNEKKIEMVRAYREKIEKELEAVCQDVLSLLDNYLIKNCSETQYESKVFYLKMKGDYYRYLAEVATGEKRATVVESSEKAYSEAHEISKEHMQPTHPIRLGLALNYSVFYYEIQNAPEQACHLAKTAFDDAIAELDTLNEDSYKDSTLIMQLLRDNLTLWTSDQQDDDGGEGNN
[7]
  binding: binds
